# Some of the results follow. Further columns of the screen follow, without active or inactive calls. The list favours compounds with an active or inconclusive main result. The note in brackets gives the kind of curve behind each potency; many fits are weak.
# Test: Cell signaling CRE-BLA (Fsk stim)
# Conditions: CHO CRE-bla reporter (cAMP response element driving beta-lactamase), forskolin EC10, beta-lactamase ratio; measured here: 460 nm blue channel
# Procedure, shortened: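 Beta-lactamase reporter under a cAMP responsive element in CHO cells; compounds tested in titration series against EC10 NKH 477, 3 h at 37 °C. Read-out: CCF4 FRET ratio 460nm/530nm (excitation 405nm) giving %Activity, fitted to AC50.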
row,Structure (SMILES),AC50
1,Cc1nc(N2CCOCC2)c2nc(-c3ccccc3)n(CCCN3CCOCC3)c2n1,"10 µM [rising, partial curve]"
2,CN1CCN(c2ncc3nc(-c4cc(F)cc(F)c4)c(=O)n(Cc4cccs4)c3n2)CC1,"2 µM [rising, full curve]"
3,COc1ccc(C(=O)COC(=O)CN2CC(=O)Oc3ccccc32)cc1Br,"2.51 µM [falling, full curve]"
4,CN(C)c1cccc(C(=O)Nc2cccc(F)c2)c1,"0.00398 µM [falling, full curve, poor fit]"
5,CC1CCN(S(=O)(=O)c2ccc3c(c2)oc(=O)n3CC(=O)N2c3ccccc3CC2C)CC1 (configuration not stated),"7.94 µM [falling, partial curve]"
6,O=C(c1cnc(N2CCN(c3ncccn3)CC2)c2ccccc12)N1CCN(c2ccccn2)CC1,"5.01 µM [rising, single point]"
7,COC(=O)c1ccc(Nc2cc(C)nc3ncnn23)cc1,"25.1 µM [rising, single point]"
8,CCn1cc(C(=O)NCc2ccccn2)c(=O)c2cc(S(=O)(=O)N3CCCCC3)ccc21,"20 µM [rising, single point]"
9,CC(NC(=O)c1ccccc1Cl)C(=O)O (configuration not stated),"0.631 µM [falling, full curve, poor fit]"
10,Cc1cc(C)n2c(Br)c(CSc3nc4ccccc4o3)nc2n1,"3.98 µM [rising, partial curve]"
11,C/C=C/CSc1nc2c(c(=O)[nH]c(=O)n2C)n1C(C)C,"5.01 µM [rising, partial curve]"
12,COc1ccc2c(c1)C(C)=CC(C)(C)N2C(=O)C(C)N1C(=O)c2ccccc2C1=O (configuration not stated),"10 µM [rising, partial curve]"
13,Cc1cccc(S(=O)(=O)c2c(N)n(/N=C/c3cccnc3)c3nc4ccccc4nc23)c1,"5.01 µM [rising, partial curve]"
14,CCOc1ccc(N(CC(=O)Nc2cccc(Cl)c2)S(=O)(=O)c2c(C)noc2C)cc1,"12.6 µM [falling, single point]"
15,CC(=O)Nc1nc(-c2ccc(Cl)cc2)nc(C)c1C(C)=O,"2 µM [rising, single point]"
16,COc1ccc2cc3cc(C(=O)NCC4CCCO4)oc3nc2c1 (configuration not stated),"7.94 µM [rising, partial curve, poor fit]"
17,COCCn1c(=O)c(-c2ccc(OC)cc2)nc2cnc(N3CCN(C)CC3)nc21,"10 µM [rising, partial curve]"
18,Cc1cccn2c(=O)c3cc(C(=O)NCC4CCCO4)c(=N)n(Cc4cccnc4)c3nc12 (configuration not stated),"2.51 µM [rising, full curve]"
19,CCOC(=O)C1=C(C)N(C2CCCCC2)C(=O)C1,"1 µM [falling, partial curve, poor fit]"
20,O=C(Oc1ccc2ccccc2c1Cl)N1CCCC1,"20 µM [rising, single point]"
21,Cc1cc(C)n2c(SCC(=O)N(C)C3CCS(=O)(=O)C3)nnc2n1 (configuration not stated),"5.01 µM [falling, single point]"

# Two of these compounds, reformatted.
row | Structure (SMILES) | AC50
6 | O=C(c1cnc(N2CCN(c3ncccn3)CC2)c2ccccc12)N1CCN(c2ccccn2)CC1 | 5.01 µM [rising, single point]
21 | Cc1cc(C)n2c(SCC(=O)N(C)C3CCS(=O)(=O)C3)nnc2n1 (configuration not stated) | 5.01 µM [falling, single point]

# Later entries

row,Structure (SMILES),AC50
1,CCOC(=O)c1c(O)c2c(n(Cc3ccco3)c1=O)CCCC2,"3.16 µM [falling, full curve]"
2,Cc1ccc2c(C(=O)CN3CCCC3)c(C)[nH]c2c1,"2 µM [falling, full curve, poor fit]"
3,CCOc1ccc(-c2nc(S(=O)(=O)c3ccccc3)c(NCc3cccnc3)o2)cc1,"25.1 µM [rising, single point]"
4,Cc1cc2c(=O)n(NC(N)=O)c(C)nc2s1,"0.501 µM [falling, partial curve]"
5,COc1ccc(N(Cc2cc3cc(OC)ccc3[nH]c2=O)C(=O)C2CCCO2)cc1 (configuration not stated),"2 µM [rising, full curve, poor fit]"
6,COc1cc(C(=O)N2CCN(c3ccc(C)cc3C)CC2)cc(OC)c1OC,"10 µM [rising, partial curve]"
7,Cc1cccc(CNc2cc(-c3ccccc3Cl)ncn2)c1,"6.31 µM [rising, partial curve]"
8,COc1ccc(CCN2CC(C#N)=C3c4cc(OC)c(OC)cc4CCN3C2)cc1OC,"1.26 µM [rising, partial curve]"
9,CCOC(=O)c1c(C)[nH]c(C(=O)CN2C(=O)NC(CC)(c3ccccc3)C2=O)c1C (configuration not stated),"20 µM [rising, single point]"
10,CN1CCN(c2ncc3nc(-c4cn(C)c5ccccc45)c(=O)n(-c4ccccc4)c3n2)CC1,"12.6 µM [rising, partial curve]"
11,CCOCCn1c(CN2CCC(C)CC2)nc2c1c(=O)n(C)c(=O)n2C,"15.8 µM [rising, single point]"
12,COc1ccccc1N1CCN(C(=O)c2sc3nc(-c4ccc(F)cc4)cn3c2C)CC1,"6.31 µM [falling, partial curve, poor fit]"
13,CN(C(=O)CN1CCC(NC(=O)C2CCCCC2)CC1)C1CCCCC1,"3.16 µM [falling, partial curve]"
14,CCc1ccc2[nH]cc(C(=O)OCCOC)c(=O)c2c1,"0.00316 µM [falling, full curve, poor fit]"
15,Nc1nnc(COc2ccc(Br)cc2Br)s1,"0.0158 µM [falling, full curve]"
16,Cc1csc2nc3ccccc3c(=O)n12,"10 µM [rising, partial curve]"
17,COCCN1C=C(C(=O)OC)C(c2ccc(OC)c(OC)c2)C(C(=O)OC)=C1,"10 µM [rising, single point]"
18,O=C(NCc1ccc2c(c1)OCO2)C1CC(=O)N(C2CCCC2)C1 (configuration not stated),"1.26 µM [falling, partial curve]"
19,CC(CCc1ccccc1)NC(=O)C1CCN(S(=O)(=O)c2cnc[nH]2)CC1 (configuration not stated),"0.00316 µM [falling, full curve, poor fit]"
20,Cn1cc(-c2nc3cnc(N4CCNCC4)nc3n(C3CC3)c2=O)c2ccccc21,"10 µM [rising, partial curve]"
21,O=C(NC1CCN(C(=O)NC2CCCCC2)CC1)c1ccco1,"0.398 µM [falling, partial curve]"

# Source: PubChem BioAssay AID662 (National Center for Advancing Translational Sciences (NCATS), 2007)
